From article doi:10.1101/2021.09.06.459189
No constants are given. Whether binding was seen depends on the method and setting. Some binding calls cover weakened binding; strength is not graded here. Where a sequence is shown, tags or fusion partners need not be part of it.

By UniProt entry, the sequences of proteins in these tests, tags left out.
UniProt P29311: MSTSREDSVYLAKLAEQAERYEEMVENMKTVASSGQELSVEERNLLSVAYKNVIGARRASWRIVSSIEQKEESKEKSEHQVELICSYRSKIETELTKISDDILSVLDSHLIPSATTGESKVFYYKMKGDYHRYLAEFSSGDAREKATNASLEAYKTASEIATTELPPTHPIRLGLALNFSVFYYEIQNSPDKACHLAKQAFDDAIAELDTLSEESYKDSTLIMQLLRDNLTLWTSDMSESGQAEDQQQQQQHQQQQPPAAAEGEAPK

Biological target: lexA-BMH1 (pLB518) (S. cerevisiae) (UniProt P29311)
Test: two-hybrid

B1: fragment of NDT80 (amino acids 287-627), two-hybrid fusion (domain or fragment, UniProt P38830 287-627)
chain: TFHGENPGIPYDELALKNGSKGMFVYLQEMKTPPLIIRGRSPSNYASSQRITVRTPSSVNSSQNSTKRKMPSMAQPLNESCLNARPSKRRSKVALGAPNSGASISPIKSRQSTPMEASKENEDPFFRPNKRVETLEHIQNKLGALKNQCPDSSLKYPSSSSRGMEGCLEKEDLVYSSSFSVNMKQIELKPARSFEHENIFKVGSLAFKKINELPHENYDITIEKKSMEQNYLRPEIGSRSECKTSYGNELSLSNISFSILPNSAENFHLETALFPATEEDVPRTFSRILETGSFQNYYQKMDAENADRVYSKGVKLIASGTLPSGIFNREELFEEDSFYKY
binding: binds

B2: GAL4AD-CDC5 (pLB491) (enzyme, UniProt P32562 1-705)
chain: MSLGPLKAINDKQLNTRSKLVHTPIKGNTADLVGKENHFKQTKRLDPNNDHHHQPAQKKKREKLSALCKTPPSLIKTRGKDYHRGHFLGEGGFARCFQIKDDSGEIFAAKTVAKASIKSEKTRKKLLSEIQIHKSMSHPNIVQFIDCFEDDSNVYILLEICPNGSLMELLKRRKVLTEPEVRFFTTQICGAIKYMHSRRVIHRDLKLGNIFFDSNYNLKIGDFGLAAVLANESERKYTICGTPNYIAPEVLMGKHSGHSFEVDIWSLGVMLYALLIGKPPFQARDVNTIYERIKCRDFSFPRDKPISDEGKILIRDILSLDPIERPSLTEIMDYVWFRGTFPPSIPSTVMSEAPNFEDIPEEQSLVNFKDCMEKSLLLESMSSDKIQRQKRDYISSIKSSIDKLEEYHQNRPFLPHSLSPGGTKQKYKEVVDIEAQRRLNDLAREARIRRAQQAVLRKELIATSTNVIKSEISLRILASECHLTLNGIVEAEAQYKMGGLPKSRLPKIKHPMIVTKWVDYSNKHGFSYQLSTEDIGVLFNNGTTVLRLADAEEFWYISYDDREGWVASHYLLSEKPRELSRHLEVVDFFAKYMKANLSRVSTFGREEYHKDDVFLRRYTRYKPFVMFELSDGTFQFNFKDHHKMAISDGGKLVTYISPSHESTTYPLVEVLKYGEIPGYPESNFREKLTLIKEGLKQKSTIVTVD
binding: binds
